Experimental data: PMC7819943, “Rice protein-binding microarrays: a tool to detect cis-acting elements near promoter regions in rice”
This is one part of the list.

Chains of the proteins cited; added tags and fusions are not shown.
UniProt Q0JBA9, entry or part of it: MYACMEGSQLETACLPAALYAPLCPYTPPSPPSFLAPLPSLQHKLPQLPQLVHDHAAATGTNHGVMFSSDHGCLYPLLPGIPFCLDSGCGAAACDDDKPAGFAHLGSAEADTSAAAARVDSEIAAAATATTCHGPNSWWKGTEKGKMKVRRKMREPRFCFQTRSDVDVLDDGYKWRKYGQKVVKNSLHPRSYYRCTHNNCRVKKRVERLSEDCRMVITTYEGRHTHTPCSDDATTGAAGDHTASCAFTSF

Biological target: OsWRKY34 (Oryza sativa, UniProt Q0JBA9 1-250)
Experiment: protein-binding microarray (RPBM); PBS, 2% BSA, 51.3 ng/ul salmon testes DNA, 50 uM zinc acetate, 200 nM TF, 25 C, 1 h; high values mean tight binding
Conditions: protein: recombinant; tags: N-terminal polyhistidine and DsRed monomer fusion (pET32a); label: CyDye5-dUTP incorporated in the synthesized complementary strand; 3' TTTTT single-stranded linker to array surface; dsDNA, one strand shown
Procedure, shortened: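 Transcription factors were each fused at the N-terminus to a polyhistidine tag plus DsRed and expressed in E. coli BL21-CodonPlus before Ni–NTA purification. Binding to a double-stranded custom Agilent array was carried out with 200 nM protein at 25 °C for 1 h in PBS, 2% BSA, salmon testes DNA and 50 µM zinc acetate. The binding signal is per-feature fluorescence intensity, in arbitrary units, on an Axon 4000B scanner.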

Sequence	binding signal
TCCCCACCGCCGCTCTAGGGTTAGGGTTTCGTGTTTCGTCCGGAGTCACCTAGTGCAG	8230 fluorescence intensity (a.u.)
TCTTTTCCTTTTTCTACTTACTATTATTATTATATAATATCGGAGTCACCTAGTGCAG	8900 fluorescence intensity (a.u.)
CCTCCTCTTCTTCTTCTTCGCCAGCACCATCGCTTCCAACCGGAGTCACCTAGTGCAG	8480 fluorescence intensity (a.u.)
GAATAGTTTCCCTAGTTCAGTCGTGTTTCCCGTGTTCTGACGGAGTCACCTAGTGCAG	9590 fluorescence intensity (a.u.)
CCCCTGTTTCTCGGTTCTTTCGCTCGCCTTCTAGGCCCAACGGAGTCACCTAGTGCAG	11400 fluorescence intensity (a.u.)
TGTCGGTGCAGGAGGCGGTGGAGGGGAGCAGGCTGTACATCGGAGTCACCTAGTGCAG	10600 fluorescence intensity (a.u.)
AATACATCTTCTCAAAATTTTTCTAGTAACATGCAAACAACGGAGTCACCTAGTGCAG	8540 fluorescence intensity (a.u.)
TTACCTCCACTATTATCACTAGCTTGTTCCTATTCTCTGGCGGAGTCACCTAGTGCAG	8220 fluorescence intensity (a.u.)
TACCTGATCAACTTTGACTAATTTTATCCATGTCATTCAGCGGAGTCACCTAGTGCAG	9490 fluorescence intensity (a.u.)
ACGTGTCACGGCTCATGTGGAATATAGTTTGTGGGATTTTCGGAGTCACCTAGTGCAG	8150 fluorescence intensity (a.u.)
GATTCAGTAGTTTGGCTCTATCCAGGTTCCAGCACCATCACGGAGTCACCTAGTGCAG	10700 fluorescence intensity (a.u.)
GCGCCGAACGCTCCCTCGTCTCGTCTGCTACCTCTCGCTCCGGAGTCACCTAGTGCAG	9160 fluorescence intensity (a.u.)
GGTTCGATCTCCGGTCCGGTTTTTTTTTTTACTATGCCGACGGAGTCACCTAGTGCAG	8340 fluorescence intensity (a.u.)
AGTCATCCAGTCACCGCCTAGGCCCAGTAACCAATGGTAGCGGAGTCACCTAGTGCAG	9240 fluorescence intensity (a.u.)
CGTTCAACAACGACACTGTGCATGATTCGATTCTCCTACCCGGAGTCACCTAGTGCAG	9000 fluorescence intensity (a.u.)
GTTGTGTTACATGATTGTCACTTTGGGCCATTAAACAACGCGGAGTCACCTAGTGCAG	8420 fluorescence intensity (a.u.)
AGATGGATGCTCTGCCCGCCGCCCTACCACCCTCTGCCATCGGAGTCACCTAGTGCAG	8030 fluorescence intensity (a.u.)
AGAACATGGCCATGCCACATATTGCCATCGCTCCATCGCTCGGAGTCACCTAGTGCAG	9200 fluorescence intensity (a.u.)
TAAACCCAAGCACGCAGCACACGCTCTCCATTCCATTCCCCGGAGTCACCTAGTGCAG	8220 fluorescence intensity (a.u.)
CATCCCTTCTTGTCTTCAAATACTGTCATCTCGATTTGGTCGGAGTCACCTAGTGCAG	9390 fluorescence intensity (a.u.)
CGCCGCCTCATCCTCGTCGTCCCGTCAACGCCACCTCACCCGGAGTCACCTAGTGCAG	10800 fluorescence intensity (a.u.)

Sequence	binding signal
CCTCCCTTGCACGGTGCTGCCATTCTGGGTGCATGCTTAGCGGAGTCACCTAGTGCAG	8120 fluorescence intensity (a.u.)
TTTCCTTCTTTTTATTTTTTTGATAATTTTATCCTCTTATCGGAGTCACCTAGTGCAG	9210 fluorescence intensity (a.u.)
GCGCATATGGGCGCCCCATTTTTTTCGCCGCATCAGGCGCCGGAGTCACCTAGTGCAG	9760 fluorescence intensity (a.u.)
GCCTGCCCACGAGTCCCGCACTAATCGATGTACCCCTTCGCGGAGTCACCTAGTGCAG	8230 fluorescence intensity (a.u.)
CTGCCTTTGTTTCTGCAGTTTCCACTCTCTGACTTTAATACGGAGTCACCTAGTGCAG	13100 fluorescence intensity (a.u.)
TTGTCTGTGTTCTTGCTGTCTCTTCTTCTCCTACTTCCTCCGGAGTCACCTAGTGCAG	12000 fluorescence intensity (a.u.)
TGTAGCTTTCTAATGTTGTTTCTGTTCTAAAACCACAGACCGGAGTCACCTAGTGCAG	8650 fluorescence intensity (a.u.)
TTGTTATTTTTCTTTTTTTTCTCTATGTGGATTTGTAGTACGGAGTCACCTAGTGCAG	8610 fluorescence intensity (a.u.)
ACACATGTCGTGGTCTCTTCTCCTGTTGCCTCTAAATTAACGGAGTCACCTAGTGCAG	8600 fluorescence intensity (a.u.)
ACCCGATACCAAATCACAAAGCATACCTTTCTCAGCCTTTCGGAGTCACCTAGTGCAG	8130 fluorescence intensity (a.u.)
ACCATTAATACTTTGGTCTACGTATTACACTCACGTAATACGGAGTCACCTAGTGCAG	8230 fluorescence intensity (a.u.)
CTCCCACGGCCTCTCCTGGTCCACGTGTACCAGCCGCAAACGGAGTCACCTAGTGCAG	8040 fluorescence intensity (a.u.)
AGAAGCAAGCAGAGAGAGAGAGAGGGAGAGGGAGGGGTGGCGGAGTCACCTAGTGCAG	8630 fluorescence intensity (a.u.)
TCTAGTGCCTCGTCTTTTGTCCATCTCCACCATCCACTGTCGGAGTCACCTAGTGCAG	8100 fluorescence intensity (a.u.)
CTCCAAATCATCTATAGCCAATGTACTTATTCCATCCGTTCGGAGTCACCTAGTGCAG	8480 fluorescence intensity (a.u.)
ATCGCGCCCCGTCCAGCCACCACGAGTCATCTCATCTCATCGGAGTCACCTAGTGCAG	11600 fluorescence intensity (a.u.)
TCTTTCCTGTTTCCGCTTGGTTTTCCGGTGTTTATTTTGTCGGAGTCACCTAGTGCAG	14200 fluorescence intensity (a.u.)
TTGATGTATGTTGGCTTGTATGTTGATCTTGTGTCTTGATCGGAGTCACCTAGTGCAG	10400 fluorescence intensity (a.u.)
GAGAAAATAGCTAGGGGTAGGGGAGGAAAAACATACATGTCGGAGTCACCTAGTGCAG	8700 fluorescence intensity (a.u.)
CCTTCGTTTATTTTCTAATCTCAATCCTACTTCTATTTTCCGGAGTCACCTAGTGCAG	9980 fluorescence intensity (a.u.)
AGCATTTTTATCCATCTCGTGTACGTGCCGGCGCCGCCGTCGGAGTCACCTAGTGCAG	8090 fluorescence intensity (a.u.)

No new results follow: an excerpt of the list.
Sequence	binding signal
CTGCCTTTGTTTCTGCAGTTTCCACTCTCTGACTTTAATACGGAGTCACCTAGTGCAG	13100 fluorescence intensity (a.u.)
TTGTCTGTGTTCTTGCTGTCTCTTCTTCTCCTACTTCCTCCGGAGTCACCTAGTGCAG	12000 fluorescence intensity (a.u.)
TGTAGCTTTCTAATGTTGTTTCTGTTCTAAAACCACAGACCGGAGTCACCTAGTGCAG	8650 fluorescence intensity (a.u.)
TTGTTATTTTTCTTTTTTTTCTCTATGTGGATTTGTAGTACGGAGTCACCTAGTGCAG	8610 fluorescence intensity (a.u.)
ACACATGTCGTGGTCTCTTCTCCTGTTGCCTCTAAATTAACGGAGTCACCTAGTGCAG	8600 fluorescence intensity (a.u.)
ACCCGATACCAAATCACAAAGCATACCTTTCTCAGCCTTTCGGAGTCACCTAGTGCAG	8130 fluorescence intensity (a.u.)
ACCATTAATACTTTGGTCTACGTATTACACTCACGTAATACGGAGTCACCTAGTGCAG	8230 fluorescence intensity (a.u.)
CTCCCACGGCCTCTCCTGGTCCACGTGTACCAGCCGCAAACGGAGTCACCTAGTGCAG	8040 fluorescence intensity (a.u.)
AGAAGCAAGCAGAGAGAGAGAGAGGGAGAGGGAGGGGTGGCGGAGTCACCTAGTGCAG	8630 fluorescence intensity (a.u.)
TCTAGTGCCTCGTCTTTTGTCCATCTCCACCATCCACTGTCGGAGTCACCTAGTGCAG	8100 fluorescence intensity (a.u.)
